Laboratory results reported in US20090131480A1 (priority 2005, published 2009).

Columns and labels:
[1] = tested on: organotypic hippocampal slice cultures; experiment: NMDA-induced neurotoxicity in organotypic hippocampal slice cultures (PI fluorescence in CA1); assay type: cell-based, Wistar rat; settings: 0.1 μM; NMDA alone 35.1±2.2%
Method: Organotypic hippocampal slice cultures were prepared using the basic method of Pringle et al, Brain Research, 755:36-46 (1997) modified as follows. Wistar rat pups (8-11 days old) were decapitated and the hippocampus rapidly dissected into ice-cold Gey's balanced salt solution supplemented with 4.5 mg/ml glucose. Transverse sections (400 μm) were cut on a McIlwain tissue chopper and placed back into ice-cold Gey's balanced salt solution. Slices were separated and plated onto Millicell CM culture inserts (4 per well) and maintained at 37° C./5% CO2 for 14 days. […] Medium was changed every 3-4 days.
PI fluorescence was detected using a Leica DMIL inverted microscope fitted with a rhodamine filter set. Any cultures in which PI fluorescence was detected at this stage were excluded from further study. […] Neuronal damage was assessed by PI fluorescence imaging 24 hours after the initiation of the neurotoxic insult. Neurotoxicity protocols are outlined below.
Neuronal damage was assessed using ImageJ software running on a PC. […] Light transmission images were captured prior to the addition of drugs, and PI fluorescence images recorded at the end of the 24-hour recovery period. […] The area of PI fluorescence in the CA1 was measured using the threshold function on ImageJ, and neuronal damage expressed as the percentage of the CA1 in which PI fluorescence was detected above background. […]

cortical neurons = experiment: Kainate-induced neuronal toxicity in cortical neurons (LDH release); assay type: cell-based, rat (Wistar, fetal); settings: 200 μM kainate 24 h; drugs 24 hours before and during exposure; FIG. 4
Method: The cortical tissues were dissociated to single cells by gentle trituration. […] The cell suspension was centrifuged at 310×g for 3 min and the resulting pellets were resuspended in the medium described above.

[2] = tested on: organotypic hippocampal slice cultures; experiment: AMPA toxicity in organotypic hippocampal slice cultures (PI fluorescence in CA1); assay type: cell-based, Wistar rat; settings: longer pre-incubation times (4 to 48 hours tested); AMPA alone 46.5±5.0%
Method: Medium was changed every 3-4 days.
Neurotoxicity protocols are outlined below.
(1) AMPA: Cultures were transferred to fresh SFM (+PI) containing 30 μM S-AMPA for 3 hours under normal culture conditions. At the end of this period, cultures were returned to fresh SFM for 21 hours prior to determination of neuronal death by PI imaging. GYKI52466 (30 μM) was used as a positive, neuroprotective control.

[3] = tested on: dopamine turnover in mice striatum; experiment: Dopamine, DOPAC and HVA content / dopamine turnover in mice striatum (HPLC with electrochemical detection); assay type: in vivo, C57BL/6 mice; settings: donepezil orally, 1 hour before sampling

SMILES: COc1cc2c(cc1OC)C(=O)C(CC1CCN(Cc3ccccc3)CC1)C2 (stereo not shown) [donepezil, 1-benzyl-4-((5,6-dimethoxy-1-indanon)-2-yl)methylpiperidine]
- neuronal damage, % of CA1 with PI fluorescence [1]: 23.0±2.4%
- neuronal survival after kainate insult (cortical neurons): modest effect
- effect on AMPA toxicity [2]: No effect
- elevation of dopamine metabolite in striatum [3]: did not reach significance
